Experimental data published in the supplement of paper PMC8728848.
The list shows a part of the results.

Key:
Assay in all cases: glycan array binding signal (z-score within array); higher = stronger binding
Details in all cases: glycan notation: IUPAC condensed, linker removed
[1] = target: Fuc(a1-2)Gal(b1-4)GlcNAc(b1-3)Gal(b1-4)GlcNAc(b1-3)Gal(b1-4)GlcNAc
Method in brief: (§1)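 Glycan array binding is given as a within-array Z-score, which can be read as non-binding when negative. The arrays, 3228 of them, came from the Consortium for Functional Glycomics database and were retained only where the protein sequence was available. Z-scores were averaged across arrays of the same protein sequence at different concentrations or buffers and across linkers.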

[2] = target: Fuc(a1-2)Gal(b1-4)GlcNAc(b1-3)GalNAc
Method in brief: as §1

[3] = target: Fuc(a1-2)Gal(b1-4)GlcNAc(b1-3)[Fuc(a1-2)Gal(b1-4)GlcNAc(b1-6)]GalNAc
Method in brief: as §1

[4] = target: Fuc(a1-2)Gal(b1-4)GlcNAc(b1-3)[Fuc(a1-3)[Gal(b1-4)]GlcNAc(b1-6)]Gal(b1-4)Glc
Method in brief: as §1

[5] = target: Fuc(a1-2)Gal(b1-4)GlcNAc(b1-6)GalNAc
Method in brief: as §1

[6] = target: Fuc(a1-2)Gal(b1-4)GlcNAc6S
Method in brief: as §1

[7] = target: Fuc(a1-2)Gal(b1-4)[Fuc(a1-3)]GlcNAc
Method in brief: as §1

[8] = target: Fuc(a1-2)Gal(b1-4)[Fuc(a1-3)]GlcNAc(b1-2)Man(a1-3)[Fuc(a1-2)Gal(b1-4)[Fuc(a1-3)]GlcNAc(b1-2)Man(a1-6)]Man(b1-4)GlcNAc(b1-4)[Fuc(a1-6)]GlcNAc
Method in brief: as §1

[9] = target: Fuc(a1-2)Gal(b1-4)[Fuc(a1-3)]GlcNAc(b1-2)[Fuc(a1-2)Gal(b1-4)[Fuc(a1-3)]GlcNAc(b1-4)]Man(a1-3)[Fuc(a1-2)Gal(b1-4)[Fuc(a1-3)]GlcNAc(b1-2)Man(a1-6)]Man(b1-4)GlcNAc(b1-4)GlcNAc
Method in brief: as §1

[10] = target: Fuc(a1-2)Gal(b1-4)[Fuc(a1-3)]GlcNAc(b1-3)Gal(b1-4)[Fuc(a1-3)]GlcNAc
Method in brief: as §1

[11] = target: Fuc(a1-2)Gal(b1-4)[Fuc(a1-3)]GlcNAc(b1-3)Gal(b1-4)[Fuc(a1-3)]GlcNAc(b1-3)Gal(b1-4)[Fuc(a1-3)]GlcNAc
Method in brief: as §1

[12] = target: Fuc(a1-2)Gal(b1-4)[Fuc(a1-3)]GlcNAc(b1-3)GalNAc
Method in brief: as §1

[13] = target: Fuc(a1-2)Gal(b1-4)[Fuc(a1-3)]GlcNAc(b1-3)[Neu5Ac(a2-6)Gal(b1-4)GlcNAc(b1-6)]Gal(b1-4)Glc
Method in brief: as §1

[14] = target: Fuc(a1-2)Gal3S(b1-4)GlcNAc
Method in brief: as §1

[15] = target: Fuc(a1-2)Gal6S(b1-3)GlcNAc
Method in brief: as §1

[16] = target: Fuc(a1-2)Gal6S(b1-3)GlcNAc6S
Method in brief: as §1

Fuc(a1-2)Gal6S(b1-4)Glc = target: Fuc(a1-2)Gal6S(b1-4)Glc
Method in brief: as §1

[17] = target: Fuc(a1-2)Gal6S(b1-4)Glc6S
Method in brief: as §1

Fuc(a1-2)[Gal(a1-3)]Gal = target: Fuc(a1-2)[Gal(a1-3)]Gal
Method in brief: as §1

[18] = target: Fuc(a1-2)[Gal(a1-3)]Gal(b1-3)GalNAc
Method in brief: as §1

[19] = target: Fuc(a1-2)[Gal(a1-3)]Gal(b1-3)GalNAc(b1-3)Gal(a1-4)Gal(b1-4)Glc
Method in brief: as §1

[20] = target: Fuc(a1-2)[Gal(a1-3)]Gal(b1-3)GlcNAc
Method in brief: as §1

[21] = target: Fuc(a1-2)[Gal(a1-3)]Gal(b1-3)GlcNAc(b1-2)Man(a1-3)[Fuc(a1-2)[Gal(a1-3)]Gal(b1-3)GlcNAc(b1-2)Man(a1-6)]Man(b1-4)GlcNAc(b1-4)GlcNAc
Method in brief: as §1

[22] = target: Fuc(a1-2)[Gal(a1-3)]Gal(b1-3)GlcNAc(b1-2)Man(a1-3)[Fuc(a1-2)[Gal(a1-3)]Gal(b1-3)GlcNAc(b1-2)Man(a1-6)]Man(b1-4)GlcNAc(b1-4)[Fuc(a1-6)]GlcNAc
Method in brief: as §1

[23] = target: Fuc(a1-2)[Gal(a1-3)]Gal(b1-3)GlcNAc(b1-3)GalNAc
Method in brief: as §1

[24] = target: Fuc(a1-2)[Gal(a1-3)]Gal(b1-3)GlcNAc(b1-6)GalNAc
Method in brief: as §1

[25] = target: Fuc(a1-2)[Gal(a1-3)]Gal(b1-4)Glc
Method in brief: as §1

[26] = target: Fuc(a1-2)[Gal(a1-3)]Gal(b1-4)GlcNAc
Method in brief: as §1

[27] = target: Fuc(a1-2)[Gal(a1-3)]Gal(b1-4)GlcNAc(b1-2)Man
Method in brief: as §1

[28] = target: Fuc(a1-2)[Gal(a1-3)]Gal(b1-4)GlcNAc(b1-2)Man(a1-3)[Fuc(a1-2)[Gal(a1-3)]Gal(b1-4)GlcNAc(b1-2)Man(a1-6)]Man(b1-4)GlcNAc(b1-4)GlcNAc
Method in brief: as §1

[29] = target: Fuc(a1-2)[Gal(a1-3)]Gal(b1-4)GlcNAc(b1-2)Man(a1-3)[Fuc(a1-2)[Gal(a1-3)]Gal(b1-4)GlcNAc(b1-2)Man(a1-6)]Man(b1-4)GlcNAc(b1-4)[Fuc(a1-6)]GlcNAc
Method in brief: as §1

[30] = target: Fuc(a1-2)[Gal(a1-3)]Gal(b1-4)GlcNAc(b1-3)GalNAc
Method in brief: as §1

[31] = target: Fuc(a1-2)[Gal(a1-3)]Gal(b1-4)GlcNAc(b1-3)[Fuc(a1-2)[Gal(a1-3)]Gal(b1-4)GlcNAc(b1-6)]GalNAc
Method in brief: as §1

[32] = target: Fuc(a1-2)[Gal(a1-3)]Gal(b1-4)GlcNAc(b1-6)GalNAc
Method in brief: as §1

[33] = target: Fuc(a1-2)[Gal(a1-3)]Gal(b1-4)[Fuc(a1-3)]Glc
Method in brief: as §1

[34] = target: Fuc(a1-2)[Gal(a1-3)]Gal(b1-4)[Fuc(a1-3)]GlcNAc
Method in brief: as §1

[35] = target: Fuc(a1-2)[Gal(a1-3)]Gal(b1-4)[Fuc(a1-3)]GlcNAc(b1-3)GalNAc
Method in brief: as §1

[36] = target: Fuc(a1-2)[Gal(a1-4)]Gal(b1-4)GlcNAc
Method in brief: as §1

[37] = target: Fuc(a1-2)[GalNAc(a1-3)]Gal
Method in brief: as §1

[38] = target: Fuc(a1-2)[GalNAc(a1-3)]Gal(b1-3)GalNAc(a1-3)[Fuc(a1-2)]Gal(b1-4)GlcNAc
Method in brief: as §1

[39] = target: Fuc(a1-2)[GalNAc(a1-3)]Gal(b1-3)GalNAc(b1-3)Gal(a1-4)Gal(b1-4)Glc
Method in brief: as §1

[40] = target: Fuc(a1-2)[GalNAc(a1-3)]Gal(b1-3)GlcNAc
Method in brief: as §1

[41] = target: Fuc(a1-2)[GalNAc(a1-3)]Gal(b1-3)GlcNAc(b1-2)Man(a1-3)[Fuc(a1-2)[GalNAc(a1-3)]Gal(b1-3)GlcNAc(b1-2)Man(a1-6)]Man(b1-4)GlcNAc(b1-4)GlcNAc
Method in brief: as §1

[42] = target: Fuc(a1-2)[GalNAc(a1-3)]Gal(b1-3)GlcNAc(b1-2)Man(a1-3)[Fuc(a1-2)[GalNAc(a1-3)]Gal(b1-3)GlcNAc(b1-2)Man(a1-6)]Man(b1-4)GlcNAc(b1-4)[Fuc(a1-6)]GlcNAc
Method in brief: as §1

[43] = target: Fuc(a1-2)[GalNAc(a1-3)]Gal(b1-3)GlcNAc(b1-3)GalNAc
Method in brief: as §1

B1: Aap arpt (Staphylococcus epidermidis) (protein)
chain: NNEAPQMSSTLQAEEGSNAEAPQSEPTKAEEGGNAEAAQSEPTKAEEGGNAEAPQSEPTKAEEGGNAEAAQSEPTKTEEGSNVKAAQSEPTKAEEGSNAEAPQSEPTKTEEGSNAKAAQSEPTKAEEGGNAEAAQSEPTKTEEGSNAEAPQSEPTKAEEGGYAEAPQSEPTKTEEGGNAEAPNVPTIKA
[1]
  glycan array binding signal (z-score): 0.9
[2]
  glycan array binding signal (z-score): -0.839
[3]
  glycan array binding signal (z-score): -1.34
[4]
  glycan array binding signal (z-score): -0.859
[5]
  glycan array binding signal (z-score): 2.11
[6]
  glycan array binding signal (z-score): 0.068
[7]
  glycan array binding signal (z-score): 0.135
[8]
  glycan array binding signal (z-score): -0.48
[9]
  glycan array binding signal (z-score): 1.73
[10]
  glycan array binding signal (z-score): 0.131
[11]
  glycan array binding signal (z-score): 0.053
[12]
  glycan array binding signal (z-score): -0.483
[13]
  glycan array binding signal (z-score): -0.793
[14]
  glycan array binding signal (z-score): 0.184
[15]
  glycan array binding signal (z-score): -1.52
[16]
  glycan array binding signal (z-score): 0.327
Fuc(a1-2)Gal6S(b1-4)Glc
  glycan array binding signal (z-score): 0.462
[17]
  glycan array binding signal (z-score): 0.373
Fuc(a1-2)[Gal(a1-3)]Gal
  glycan array binding signal (z-score): -0.638
[18]
  glycan array binding signal (z-score): -0.434
[19]
  glycan array binding signal (z-score): -0.802
[20]
  glycan array binding signal (z-score): -0.351
[21]
  glycan array binding signal (z-score): -0.069
[22]
  glycan array binding signal (z-score): -0.12
[23]
  glycan array binding signal (z-score): 0.244
[24]
  glycan array binding signal (z-score): -0.422
[25]
  glycan array binding signal (z-score): -0.416
[26]
  glycan array binding signal (z-score): 0.036
[27]
  glycan array binding signal (z-score): 0.725
[28]
  glycan array binding signal (z-score): 0.857
[29]
  glycan array binding signal (z-score): 0.149
[30]
  glycan array binding signal (z-score): 0.911
[31]
  glycan array binding signal (z-score): 1.58
[32]
  glycan array binding signal (z-score): -0.475
[33]
  glycan array binding signal (z-score): -0.463
[34]
  glycan array binding signal (z-score): -0.571
[35]
  glycan array binding signal (z-score): 0.442
[36]
  glycan array binding signal (z-score): -0.791
[37]
  glycan array binding signal (z-score): -0.531
[38]
  glycan array binding signal (z-score): -0.523
[39]
  glycan array binding signal (z-score): -0.952
[40]
  glycan array binding signal (z-score): -1.15
[41]
  glycan array binding signal (z-score): -0.928
[42]
  glycan array binding signal (z-score): -0.31
[43]
  glycan array binding signal (z-score): -0.103
